Experimental data: patent US20210171576A1, “METHODS FOR TREATING CANCER WITH ACYLDEPSIPEPTIDE ANALOGS” (priority 2018, published 2021)

Test system: mitochondrial proteins of HEK293 T-REx cells
Experiment: Mitochondrial proteome profiling for WT and CLPP^−/− (fold change CLPP^−/−/WT)
Design: species or system human
Settings: fold change of mitochondrial protein detected in CLPP knockout compared to WT HEK293 T-REx cells; MaxQuant total peptide ion intensity

| Molecule | Avg. fold change (CLPP KO/WT) |
| --- | --- |
| GPD2 (protein, UniProt P43304 43-727, looked up) Glycerol-3-phosphate …: ADCISEPVNREPPSREAQLLTLQNTSEFDILVIGGGATGSGCALDAVTRGLKTALVERDDFSSGTSSRSTKLIHGGVRYLQKAIMKLDIEQYRMVKEALHERANLLEIAPHLSAPLPIMLPVYKWWQLPYYWVGIKLYDLVAGSNCLKSSYVLSKSRALEHFPMLQKDKLVGAIVYYDGQHNDARMNLAIALTAARYGAATANYMEVVSLLKKTDPQTGKVRVSGARCKDVLTGQEFDVRAKCVINATGPFTDSVRKMDDKDAAAICQPSAGVHIVMPGYYSPESMGLLDPATSDGRVIFFLPWQKMTIAGTTDTPTDVTHHPIPSEEDINFILNEVRNYLSCDVEVRRGDVLAAWSGIRPLVTDPKSADTQSISRNHVVDISESGLITIAGGKWTTYRSMAEDTINAAVKTHNLKAGPSRTVGLFLQGGKDWSPTLYIRLVQDYGLESEVAQHLAATYGDKAFEVAKMASVTGKRWPIVGVRLVSEFPYIEAEVKYGIKEYACTAVDMISRRTRLAFLNVQAAEEALPRIVELMGRELNWDDYKKQEQLETARKFLYYEMGYKSRSEQLTDRSEISLLPSDIDRYKKRFHKFDADQKGFITIVDVQRVLESINVQMDENTLHEILNEVDLNKNGQVELNEFLQLMSAIQKGRVSGSRLAILMKTAEENLDRRVPIPVDRSCGGL | −1.31 |
| GRPEL1 (protein, UniProt Q9HAV7 28-217, looked up) GrpE protein homolog 1, …: CTATKQKNSGQNLEEDMGQSEQKADPPATEKTLLEEKVKLEEQLKETVEKYKRALADTENLRQRSQKLVEEAKLYGIQAFCKDLLEVADVLEKATQCVPKEEIKDDNPHLKNLYEGLVMTEVQIQKVFTKHGLLKLNPVGAKFDPYEHEALFHTPVEGKEPGTVALVSKVGYKLHGRTLRPALVGVVKEA | 1.21 |
| GSTK1 (protein, UniProt Q9Y2Q3 1-226, looked up) Glutathione S-transferase …: MGPLPRTVELFYDVLSPYSWLGFEILCRYQNIWNINLQLRPSLITGIMKDSGNKPPGLLPRKGLYMANDLKLLRHHLQIPIHFPKDFLSVMLEKGSLSAMRFLTAVNLEHPEMLEKASRELWMRVWSRNEDITEPQSILAAAEKAGMSAEQAQGLLEKIATPKVKNQLKETTEAACRYGAFGLPITVAHVDGQTHMLFGSDRMELLAHLLGEKWMGPIPPAVNARL | 1.29 |
| HIBADH (protein, UniProt P31937 37-336, looked up) 3-hydroxyisobutyrate …: ASKTPVGFIGLGNMGNPMAKNLMKHGYPLIIYDVFPDACKEFQDAGEQVVSSPADVAEKADRIITMLPTSINAIEAYSGANGILKKVKKGSLLIDSSTIDPAVSKELAKEVEKMGAVFMDAPVSGGVGAARSGNLTFMVGGVEDEFAAAQELLGCMGSNVVYCGAVGTGQAAKICNNMLLAISMIGTAEAMNLGIRLGLDPKLLAKILNMSSGRCWSSDTYNPVPGVMDGVPSANNYQGGFGTTLMAKDLGLAQDSATSTKSPILLGSLAHQIYRMMCAKGYSKKDFSSVFQFLREEETF | 1.04 |
| HSPD1 (protein, UniProt P10809 27-573, looked up) 60 kDa heat shock protein, …: AKDVKFGADARALMLQGVDLLADAVAVTMGPKGRTVIIEQSWGSPKVTKDGVTVAKSIDLKDKYKNIGAKLVQDVANNTNEEAGDGTTTATVLARSIAKEGFEKISKGANPVEIRRGVMLAVDAVIAELKKQSKPVTTPEEIAQVATISANGDKEIGNIISDAMKKVGRKGVITVKDGKTLNDELEIIEGMKFDRGYISPYFINTSKGQKCEFQDAYVLLSEKKISSIQSIVPALEIANAHRKPLVIIAEDVDGEALSTLVLNRLKVGLQVVAVKAPGFGDNRKNQLKDMAIATGGAVFGEEGLTLNLEDVQPHDLGKVGEVIVTKDDAMLLKGKGDKAQIEKRIQEIIEQLDVTTSEYEKEKLNERLAKLSDGVAVLKVGGTSDVEVNEKKDRVTDALNATRAAVEEGIVLGGGCALLRCIPALDSLTPANEDQKIGIEIIKRTLKIPAMTIAKNAGVEGSLIVEKIMQSSSEVGYDAMAGDFVNMVEKGIIDPTKVVRTALLDAAGVASLLTTAEVVVTEIPKEEKDPGMGAMGGMGGGMGGGMF | 1.21 |
